# Data reported in the supplement of paper PMC12819154, “High-throughput peptide-centric local stability assay extends protein–ligand identification to membrane proteins, tissues and bacteria” (Nature Structural & Molecular Biology, 2025).
# Chains of the proteins cited; added tags and fusions are not shown. Lines headed by an entry give the natural chain unless they say otherwise; changes in a name come on top.
# UniProt Q8N554: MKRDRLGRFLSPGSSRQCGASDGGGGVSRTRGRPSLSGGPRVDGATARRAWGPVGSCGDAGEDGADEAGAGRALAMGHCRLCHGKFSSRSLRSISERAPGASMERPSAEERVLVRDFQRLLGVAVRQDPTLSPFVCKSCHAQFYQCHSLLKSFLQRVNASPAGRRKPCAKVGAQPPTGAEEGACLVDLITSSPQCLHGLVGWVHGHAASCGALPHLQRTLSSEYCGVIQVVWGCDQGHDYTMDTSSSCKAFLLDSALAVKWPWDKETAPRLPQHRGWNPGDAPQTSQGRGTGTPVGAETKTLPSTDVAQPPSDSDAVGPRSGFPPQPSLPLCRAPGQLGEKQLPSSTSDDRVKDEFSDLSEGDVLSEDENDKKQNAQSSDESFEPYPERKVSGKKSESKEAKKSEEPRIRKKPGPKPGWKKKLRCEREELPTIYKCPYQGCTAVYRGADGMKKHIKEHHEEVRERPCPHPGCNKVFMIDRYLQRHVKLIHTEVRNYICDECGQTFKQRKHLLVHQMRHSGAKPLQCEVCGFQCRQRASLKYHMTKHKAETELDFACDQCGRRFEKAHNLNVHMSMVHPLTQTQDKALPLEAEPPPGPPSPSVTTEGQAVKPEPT
# UniProt Q8NDD1: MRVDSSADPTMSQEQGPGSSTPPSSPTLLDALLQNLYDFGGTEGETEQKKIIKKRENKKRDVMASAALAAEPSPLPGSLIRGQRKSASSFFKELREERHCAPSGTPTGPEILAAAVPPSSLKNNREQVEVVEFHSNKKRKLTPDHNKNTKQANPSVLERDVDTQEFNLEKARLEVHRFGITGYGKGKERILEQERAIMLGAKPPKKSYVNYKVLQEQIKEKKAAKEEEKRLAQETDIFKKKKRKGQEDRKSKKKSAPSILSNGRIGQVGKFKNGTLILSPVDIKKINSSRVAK
# UniProt Q8N9Q2: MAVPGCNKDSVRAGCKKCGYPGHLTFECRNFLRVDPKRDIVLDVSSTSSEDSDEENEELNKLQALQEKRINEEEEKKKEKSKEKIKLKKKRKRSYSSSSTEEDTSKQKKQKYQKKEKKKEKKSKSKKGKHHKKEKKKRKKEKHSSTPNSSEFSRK
# UniProt Q8NDV7: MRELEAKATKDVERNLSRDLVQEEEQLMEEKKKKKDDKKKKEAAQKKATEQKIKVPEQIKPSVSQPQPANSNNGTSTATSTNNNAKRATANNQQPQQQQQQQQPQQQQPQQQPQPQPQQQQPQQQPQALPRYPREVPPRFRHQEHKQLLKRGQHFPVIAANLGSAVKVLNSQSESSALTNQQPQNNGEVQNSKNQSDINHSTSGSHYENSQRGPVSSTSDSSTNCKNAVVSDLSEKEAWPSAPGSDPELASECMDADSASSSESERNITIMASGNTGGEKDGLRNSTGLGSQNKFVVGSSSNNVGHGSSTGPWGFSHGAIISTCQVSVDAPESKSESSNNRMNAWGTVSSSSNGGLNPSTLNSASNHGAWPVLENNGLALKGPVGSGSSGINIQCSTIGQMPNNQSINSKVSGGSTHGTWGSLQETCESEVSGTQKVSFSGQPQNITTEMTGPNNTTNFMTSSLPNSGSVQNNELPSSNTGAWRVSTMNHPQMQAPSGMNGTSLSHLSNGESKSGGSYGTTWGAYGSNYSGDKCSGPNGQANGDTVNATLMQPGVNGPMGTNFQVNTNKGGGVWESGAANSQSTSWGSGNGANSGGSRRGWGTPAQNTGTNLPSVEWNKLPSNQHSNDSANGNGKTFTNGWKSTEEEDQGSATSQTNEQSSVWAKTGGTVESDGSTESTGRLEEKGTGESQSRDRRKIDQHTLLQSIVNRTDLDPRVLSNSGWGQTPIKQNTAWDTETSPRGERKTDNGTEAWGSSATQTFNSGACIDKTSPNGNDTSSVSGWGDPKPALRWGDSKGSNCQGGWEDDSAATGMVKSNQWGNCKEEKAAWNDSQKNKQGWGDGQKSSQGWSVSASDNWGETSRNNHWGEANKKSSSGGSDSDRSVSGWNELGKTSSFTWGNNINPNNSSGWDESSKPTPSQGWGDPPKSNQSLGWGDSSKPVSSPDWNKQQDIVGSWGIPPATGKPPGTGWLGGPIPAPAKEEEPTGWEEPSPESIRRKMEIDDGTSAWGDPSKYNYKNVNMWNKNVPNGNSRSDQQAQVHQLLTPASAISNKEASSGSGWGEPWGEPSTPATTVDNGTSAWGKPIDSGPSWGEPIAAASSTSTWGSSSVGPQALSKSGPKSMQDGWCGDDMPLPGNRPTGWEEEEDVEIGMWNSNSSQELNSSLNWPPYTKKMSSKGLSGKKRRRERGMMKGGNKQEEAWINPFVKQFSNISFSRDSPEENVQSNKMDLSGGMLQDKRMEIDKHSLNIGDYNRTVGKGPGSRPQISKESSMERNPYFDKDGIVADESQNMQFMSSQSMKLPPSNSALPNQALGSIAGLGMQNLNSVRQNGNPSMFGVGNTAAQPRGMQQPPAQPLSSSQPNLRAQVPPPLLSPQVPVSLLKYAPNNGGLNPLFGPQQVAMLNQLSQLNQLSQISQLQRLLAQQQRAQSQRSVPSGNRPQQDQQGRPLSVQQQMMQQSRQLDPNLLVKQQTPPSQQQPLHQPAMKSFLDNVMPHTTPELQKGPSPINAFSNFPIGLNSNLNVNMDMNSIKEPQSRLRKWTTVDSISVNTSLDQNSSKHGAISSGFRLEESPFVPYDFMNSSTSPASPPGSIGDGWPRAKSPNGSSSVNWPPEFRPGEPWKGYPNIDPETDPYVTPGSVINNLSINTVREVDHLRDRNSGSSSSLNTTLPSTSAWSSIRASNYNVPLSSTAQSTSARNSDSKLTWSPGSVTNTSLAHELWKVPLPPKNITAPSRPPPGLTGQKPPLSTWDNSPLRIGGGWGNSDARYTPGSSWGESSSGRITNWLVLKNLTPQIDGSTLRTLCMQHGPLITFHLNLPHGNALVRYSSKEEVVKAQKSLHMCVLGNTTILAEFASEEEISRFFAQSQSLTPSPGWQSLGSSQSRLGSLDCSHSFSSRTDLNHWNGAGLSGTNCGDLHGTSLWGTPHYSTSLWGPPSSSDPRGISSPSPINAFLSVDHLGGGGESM
# UniProt Q8N5M9: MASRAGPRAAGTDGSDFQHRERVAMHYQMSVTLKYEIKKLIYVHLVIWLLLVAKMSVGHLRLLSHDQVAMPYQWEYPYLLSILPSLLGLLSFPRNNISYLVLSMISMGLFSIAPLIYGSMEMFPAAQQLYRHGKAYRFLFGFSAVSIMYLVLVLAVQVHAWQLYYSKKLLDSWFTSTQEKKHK
# UniProt Q8N8K9: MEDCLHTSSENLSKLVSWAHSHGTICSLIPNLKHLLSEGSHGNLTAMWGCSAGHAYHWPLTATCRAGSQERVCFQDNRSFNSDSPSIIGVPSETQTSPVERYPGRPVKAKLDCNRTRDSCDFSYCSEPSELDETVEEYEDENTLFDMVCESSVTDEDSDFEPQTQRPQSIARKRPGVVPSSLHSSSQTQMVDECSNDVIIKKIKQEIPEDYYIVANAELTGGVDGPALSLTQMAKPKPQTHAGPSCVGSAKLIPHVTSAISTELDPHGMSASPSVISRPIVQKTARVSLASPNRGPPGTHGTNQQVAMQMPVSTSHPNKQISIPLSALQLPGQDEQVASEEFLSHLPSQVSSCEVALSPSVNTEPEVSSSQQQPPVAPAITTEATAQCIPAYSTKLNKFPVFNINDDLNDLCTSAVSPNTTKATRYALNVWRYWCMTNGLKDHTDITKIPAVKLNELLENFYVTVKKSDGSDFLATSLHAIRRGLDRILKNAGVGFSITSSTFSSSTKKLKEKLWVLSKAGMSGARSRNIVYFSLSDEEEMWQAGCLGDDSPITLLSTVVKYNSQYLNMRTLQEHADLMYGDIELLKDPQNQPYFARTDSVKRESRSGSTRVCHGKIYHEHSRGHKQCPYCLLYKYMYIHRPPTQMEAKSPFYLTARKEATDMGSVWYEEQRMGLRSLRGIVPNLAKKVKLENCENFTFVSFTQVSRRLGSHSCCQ
# UniProt Q8N720: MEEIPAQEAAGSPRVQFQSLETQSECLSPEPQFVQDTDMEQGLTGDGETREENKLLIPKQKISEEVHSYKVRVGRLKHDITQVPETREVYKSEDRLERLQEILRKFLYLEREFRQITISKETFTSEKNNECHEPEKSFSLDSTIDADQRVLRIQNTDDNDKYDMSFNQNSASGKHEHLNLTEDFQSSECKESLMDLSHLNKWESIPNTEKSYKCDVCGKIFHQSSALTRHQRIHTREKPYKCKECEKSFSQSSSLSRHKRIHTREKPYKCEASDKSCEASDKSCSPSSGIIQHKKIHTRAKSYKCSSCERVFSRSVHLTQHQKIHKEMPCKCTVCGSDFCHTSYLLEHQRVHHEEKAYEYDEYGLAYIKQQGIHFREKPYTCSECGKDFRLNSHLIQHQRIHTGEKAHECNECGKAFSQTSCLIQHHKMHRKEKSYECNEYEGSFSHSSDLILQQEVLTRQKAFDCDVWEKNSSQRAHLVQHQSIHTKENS
# UniProt Q8N5W9: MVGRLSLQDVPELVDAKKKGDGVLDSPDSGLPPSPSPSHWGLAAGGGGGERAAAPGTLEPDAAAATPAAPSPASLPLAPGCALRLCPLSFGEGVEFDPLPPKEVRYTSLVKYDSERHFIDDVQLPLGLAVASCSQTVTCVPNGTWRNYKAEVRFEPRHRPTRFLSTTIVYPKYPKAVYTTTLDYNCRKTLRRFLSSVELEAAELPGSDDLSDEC
# This is one part of the list. Small differences around the control level are noise.
# Compound: Cc1nc(Nc2ncc(C(=O)Nc3c(C)cccc3Cl)s2)cc(N2CCN(CCO)CC2)n1 [dasatinib]
# Experiment: log2 fold change of tryptic peptide abundance, ligand vs vehicle (limited proteolysis) (log2 ratio); higher = more trypsin-susceptible (destabilized)
# Conditions: ligand concentration: 5 uM; sample: K562 cleared lysate
row,Target,log2 fold change
1,"UniProt Q8N554 (peptide sequence: APGASMERPSAEER, peptide start residue: 98)",0.242
2,"C1orf131 (peptide sequence: EQVEVVEFHSNKK, peptide start residue: 126) (UniProt Q8NDD1)",0.616
3,"SREK1IP1 (peptide sequence: HSSTPNSSEFSRK, peptide start residue: 143) (UniProt Q8N9Q2)",-0.207
4,"TNRC6A (peptide sequence: LGSLDCSHSFSSR, peptide start residue: 1882) (UniProt Q8NDV7)",0.542
5,"JAGN1 (peptide sequence: AAGTDGSDFQHR, peptide start residue: 9) (UniProt Q8N5M9)",0.137
6,"UniProt Q8N8K9 (peptide sequence: AKLDCNR, peptide start residue: 109)",-0.51
7,"ZNF655 (peptide sequence: SCSPSSGIIQHK, peptide start residue: 283) (UniProt Q8N720)",-0.53
8,"RFLNB (peptide sequence: AVYTTTLDYNCRK, peptide start residue: 176) (UniProt Q8N5W9)",-0.119
